3 molecules from PMC4649906, “Unraveling the molecular architecture of a G protein-coupled receptor/β-arrestin/Erk module complex” (Scientific Reports, 2015) can be followed below.

Sequences of proteins named here, by UniProt entry; tags and fusion partners are left off.
UniProt P28482: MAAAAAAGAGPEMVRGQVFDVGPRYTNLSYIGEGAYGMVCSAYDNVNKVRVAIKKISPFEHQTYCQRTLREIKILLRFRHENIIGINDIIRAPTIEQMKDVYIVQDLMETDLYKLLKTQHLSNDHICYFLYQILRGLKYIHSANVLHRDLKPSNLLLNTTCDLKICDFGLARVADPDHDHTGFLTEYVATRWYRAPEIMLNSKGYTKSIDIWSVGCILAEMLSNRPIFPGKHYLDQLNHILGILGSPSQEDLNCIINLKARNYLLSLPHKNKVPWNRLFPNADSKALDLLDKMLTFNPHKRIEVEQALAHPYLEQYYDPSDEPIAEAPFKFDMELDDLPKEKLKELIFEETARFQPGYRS
UniProt P49407: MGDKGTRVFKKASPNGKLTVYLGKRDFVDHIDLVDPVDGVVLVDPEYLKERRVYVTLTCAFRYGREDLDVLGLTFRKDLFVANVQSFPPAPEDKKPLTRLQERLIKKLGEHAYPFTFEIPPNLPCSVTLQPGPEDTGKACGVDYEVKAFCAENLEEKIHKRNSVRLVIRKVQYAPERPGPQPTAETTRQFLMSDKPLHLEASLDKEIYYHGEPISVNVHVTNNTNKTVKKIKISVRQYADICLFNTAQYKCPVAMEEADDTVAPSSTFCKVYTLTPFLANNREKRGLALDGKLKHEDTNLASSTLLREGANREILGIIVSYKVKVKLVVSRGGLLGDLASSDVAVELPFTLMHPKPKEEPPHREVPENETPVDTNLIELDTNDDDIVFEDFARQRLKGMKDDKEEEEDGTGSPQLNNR

One assay deals with GST-ERK2 fusion protein (UniProt P28482). Nature of the assay: pull-down; GST fusion protein immobilised on Glutathione Sepharose 4B beads; 25 ng human recombinant β-arrestin 1 as prey, with or without 0.5 mM peptide; 20 mM Hepes pH 7.9, 50 mM KCl, 2.5 mM MgCl2, 1 mM DTT, 10% glycerol, protease and phosphatase inhibitors; 1 hour at 4 °C; six washes; blot with anti-β-arrestin, quantified as the ratio of β-arrestin 1 over GST fusion; both purified.

For assay [1], the target named is GST-Raf1-RBD fusion protein (UniProt P04049). Described as above.

Results are given in words; binding and its absence hold for the method and conditions named. Some results given as binding are weak or reduced against the parent protein; the word gives no strength.

Turning to “human recombinant β-arrestin 1 (from UniProt P49407 1-418)”, the binding entry (with GST-ERK2 fusion protein; in assay [1]) was “binds” each time.

B1: βarr1_Raf1 interfering peptide (peptide)
peptide: HIDLVEPVD
Take B1: the binding entry in assay [1] is “binds”.

B2: βarr1_ERK2 interfering peptide (peptide)
peptide: LKHEDTN
Consider B2, for which the binding result with GST-ERK2 fusion protein is given as “binds”.
